Some of the results follow. Shown are side measurements of this screen, not its main read-out; they come without a call. Compounds called inactive in the main read-out are mostly missing here. The note in brackets gives the kind of curve behind each potency; many fits are weak.
Assay: qHTS Assay for Modulators of Lamin A Splicing
Conditions: HeLa LMNA splicing GFP/RFP minigene ratio, 48 h
In short: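 Read-out is the ratio of GFP to DsRed2 object intensity, acquired by 488 nm laser-scanning cytometry on HeLa lamin A-EGFP minigene reporter cells. Compound incubation 48 hrs at 37 °C in Opti-MEM with 2% FBS; DMSO 0.5% final.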

[1] = measured here: GFP splicing reporter channel
[2] = measured here: RFP viability control channel

Compound | AC50 [1] | AC50 [2]
COc1ccc2c(c1)CC/C(=C\c1ccc(OC)c(Cn3cccn3)c1)C2=O | 14.1 µM [falling, single point] | 22.4 µM [falling, single point]
Cc1cc(C)cc(C(=O)NCC(c2ccc(N(C)C)cc2)N2CCCC2)c1 (configuration not stated) | 20 µM [falling, partial curve, poor fit] | –
Clc1ccc(-c2csc(N/N=C/c3cccnc3)n2)c(Cl)c1 | – | 17.8 µM [rising, single point]
COc1ccc2c(C)cc(SCC(=O)Nc3ccc(Cl)cn3)nc2c1 | 0.178 µM [rising, partial curve] | 0.141 µM [rising, full curve]
CC(C)(C)NC(=O)COC(=O)CCC(=O)c1ccc(F)cc1 | 22.4 µM [falling, partial curve, poor fit] | 14.1 µM [falling, partial curve, poor fit]
Cc1cccc(Nc2nc(N)c([N+](=O)[O-])c(N3CCCC(C)C3)n2)c1 (configuration not stated) | 5.62 µM [falling, single point] | 2.82 µM [falling, single point]
CCNC(=S)N/N=C/c1cccc(C)c1 | – | 31.6 µM [rising, single point]
CCc1ccc(/C=C/C(=O)c2c(C)cc(C)[nH]c2=O)cc1 | 11.2 µM [falling, partial curve] | 35.5 µM [rising, single point]
CCOc1cc(C)nc(Oc2ccc(=O)[nH]n2)n1 | – | 7.94 µM [falling, single point]
N#C/C(=C\Nc1ccccc1SC(F)(F)F)c1nc(-c2ccc(Cl)cc2)cs1 | – | 31.6 µM [rising, single point]
COc1ccc(Br)cc1CNc1ccc(S(N)(=O)=O)cc1 | 31.6 µM [rising, single point] | 35.5 µM [rising, single point]
Cc1ccc(S(=O)(=O)NCc2nc3ccccc3c(=O)n2N)cc1 | – | 20 µM [rising, single point]
C=CCSc1n[nH]c(-c2ccc(OCCCC)cc2)n1 | – | 12.6 µM [rising, single point]
CCC(C)n1c(SCc2ccccc2)nc2ccsc2c1=O (configuration not stated) | 35.5 µM [rising, single point] | 35.5 µM [rising, single point]
CC(=O)Oc1ccc(C(=O)Nc2cccc(C(=O)NC(C)(C)C)c2)cc1 | 1.26 µM [rising, single point] | 1.26 µM [rising, single point]
Cc1cc(C)nc(N2CCC(C(=O)NCCc3ccc(Cl)cc3)CC2)n1 | 1.78 µM [falling, full curve] | 7.08 µM [falling, full curve, poor fit]
COc1cc(NC(=O)Cc2nn(C)c(=O)c3ccccc23)cc(OC)c1 | 2.24 µM [rising, partial curve, poor fit] | 2.82 µM [rising, partial curve, poor fit]
CCCOc1ncnc2c1[nH]c1ccccc12 | 2.82 µM [rising, single point] | 7.94 µM [rising, partial curve]
CCCNC(=O)NS(=O)(=O)c1ccc(Cl)cc1 | – | 0.00501 µM [falling, full curve]
O=C(c1ccccc1)c1c2c(cc3sc4ccccc4[n+]13)-c1cccc3cccc-2c13 | 1.12 µM [rising, partial curve] | 11.2 µM [rising, partial curve]
Cc1ccc(-n2c(C)nc3c(cnn3-c3ccc(C)c(C)c3)c2=O)cc1C | 17.8 µM [rising, single point] | 35.5 µM [rising, single point]
COc1ccc(N2C(=O)C3C(C2=O)C2C=CC3C23CC3)c(OC)c1 (configuration not stated) | – | 31.6 µM [rising, single point]
Cc1cc(C)n2c(Br)c(CSc3nc4ccccc4o3)nc2n1 | 6.31 µM [rising, partial curve] | 7.94 µM [rising, partial curve, poor fit]
CCOC(=O)CC1C(=O)NCCN1Cc1ccc(OC)c(OC)c1 (configuration not stated) | 1 µM [falling, single point] | 5.62 µM [falling, single point]
Cc1ccc2c(c1)N(C(=O)CCC(=O)N1CCc3ccccc3C1)CCO2 | 15.8 µM [rising, single point] | –
COc1cc(C=O)ccc1OCCOCCOc1cc(C)ccc1Cl | – | 14.1 µM [rising, single point]
CC(C)C(NC(=O)c1ccccc1Cl)C(=O)OCc1nc2scc(-c3ccccc3Cl)c2c(=O)[nH]1 (configuration not stated) | 0.178 µM [rising, full curve] | 4.47 µM [rising, partial curve]
Cc1nc2ccccn2c1C(=O)OCC#N | 0.158 µM [rising, full curve, poor fit] | –

In another format: two of the compounds above.
COc1ccc2c(c1)CC/C(=C\c1ccc(OC)c(Cn3cccn3)c1)C2=O
  AC50 [1]: 14.1 µM [falling, single point]; AC50 [2]: 22.4 µM [falling, single point]
CCNC(=S)N/N=C/c1cccc(C)c1
  AC50 [2]: 31.6 µM [rising, single point]

(list continues)

Compound | AC50 [1] | AC50 [2]
Nc1ccccc1Nc1ccccc1 | 15.8 µM [falling, single point] | –
CCOC(=O)c1cc([N+](=O)[O-])c([N+](=O)[O-])cc1NC(C)=O | – | 22.4 µM [falling, partial curve, poor fit]
Cc1ccc(C)c(NC(=O)Cn2cc(S(=O)(=O)Cc3cccc(Cl)c3)c3ccccc32)c1 | – | 35.5 µM [falling, single point]
N#Cc1ccsc1NC(=O)COc1ccc(-c2nnco2)cc1 | – | 17.8 µM [rising, partial curve, poor fit]
CCOC(=O)c1cncc(C#CCOC(=O)Nc2ccc(OC(F)(F)F)cc2)c1 | 0.158 µM [falling, full curve, poor fit] | 0.141 µM [falling, full curve, poor fit]
O=C(CSc1nccc(-c2cccs2)n1)Nc1cccc(Cl)c1Cl | 35.5 µM [falling, single point] | 25.1 µM [falling, partial curve, poor fit]
Cc1ccc2nc3sc(C(=O)N4CCCc5ccccc54)c(N)c3cc2c1 | – | 35.5 µM [rising, partial curve]
CC(=O)O[C@]1(C(C)=O)CC[C@H]2[C@@H]3C=C(Cl)C4=CC(=O)CC[C@]4(C)[C@H]3CC[C@@]21C | 1.41 µM [falling, full curve, poor fit] | –
COc1ccc(C(=O)C(C)N(C(=O)c2ccc(Cl)cc2Cl)N2C(=O)C3C4C=CC(C4)C3C2=O)cc1 (configuration not stated) | 11.2 µM [rising, single point] | –
O=C(Nc1nnc(-c2cccnc2)o1)c1cccc([N+](=O)[O-])c1 | 1.26 µM [rising, full curve, poor fit] | –
COC(=O)c1ccc(NC(=O)C23CC4CC(C2)CC(n2cnc(Cl)n2)(C4)C3)cc1 | – | 20 µM [rising, single point]
Cc1nn(-c2ccccc2)c(Cl)c1/C=N/Nc1ccc(Cl)c(C(=O)O)c1 | – | 3.55 µM [rising, full curve, poor fit]
CC(=O)c1cc(-c2ccccc2)n(CC(=O)Nc2ccc(C)c(C)c2)c1C | 35.5 µM [falling, single point] | 35.5 µM [falling, single point]
Cn1ccnc1SCC(=O)Nc1cccc(S(=O)(=O)N2CCCCC2)c1 | 20 µM [falling, partial curve] | 12.6 µM [falling, partial curve, poor fit]
COc1ccccc1-c1nc(SCC(=O)NCc2ccccc2)c2c(=O)n(C)c(=O)n(C)c2n1 | 0.178 µM [rising, full curve, poor fit] | –
Cc1ccc(OCC(=O)N/N=C/c2cn(Cc3ccccc3)c3ccccc23)cc1 | – | 15.8 µM [rising, single point]
CC1(C)Cc2c(c(-c3ccco3)nc3n[nH]c(N)c23)CO1 | – | 35.5 µM [rising, single point]
Clc1ccc(-c2nnc3sc(Cc4cccs4)nn23)cc1 | – | 35.5 µM [rising, single point]
O=C(CN1CCc2ccccc2C1)Nc1ccccc1N1CCCCCC1 | 10 µM [rising, partial curve] | 11.2 µM [rising, single point]
CN(Cc1cc(-c2ccccc2)on1)C(=O)c1cc(COc2c(F)cccc2F)on1 | – | 8.91 µM [falling, partial curve]
CCC(=O)C1=C(c2ccc(OC)c(OC)c2)N(C(=O)CC)n2c(nnc2-c2ccc(C)cc2)S1 | – | 35.5 µM [rising, single point]
CCc1cccc(CC)c1N1C(=O)c2cc(N3CCOCC3)c([N+](=O)[O-])cc2C1=O | 11.2 µM [rising, single point] | 25.1 µM [rising, single point]
CCOC(=O)N1CCC(NC(=O)c2cc(S(=O)(=O)N3CCC4(CC3)OCCO4)ccc2F)CC1 | 11.2 µM [rising, partial curve, poor fit] | –
CN(C)CCCC1(O)c2ccccc2CCc2ccccc21 | – | 0.0398 µM [falling, full curve, poor fit]
Cc1ccc(/C=N/NC(=O)COc2ccccc2-c2ccccc2)cc1 | – | 0.1 µM [rising, full curve]
COc1ccc2c(C)cc(Sc3nnnn3-c3ccccc3)nc2c1 | – | 22.4 µM [rising, partial curve, poor fit]
O=c1c2ccccc2nc2n1CCN2Cc1ccc(Cl)cc1 | – | 12.6 µM [rising, partial curve]

Quoted from the listing.
Under AC50 [1], `Cc1nc2ccccn2c1C(=O)OCC#N` has 0.158 µM [rising, full curve, poor fit]
Under AC50 [2], `Clc1ccc(-c2csc(N/N=C/c3cccnc3)n2)c(Cl)c1` has 17.8 µM [rising, single point]

Source: PubChem BioAssay AID1487 (National Center for Advancing Translational Sciences (NCATS), 2009)
